Experimental data as given in publication PMC7819943, “Rice protein-binding microarrays: a tool to detect cis-acting elements near promoter regions in rice”.
The other results are listed elsewhere or left out.

Each sequence was assayed against T1, OsSMF1 (Oryza sativa, UniProt Q6ZLB0 1-436) (assay: protein-binding microarray (RPBM); PBS, 2% BSA, 51.3 ng/ul salmon testes DNA, 50 uM zinc acetate, 200 nM TF, 25 C, 1 h; high values mean tight binding). Details: protein: recombinant; tags: N-terminal polyhistidine and DsRed monomer fusion (pET32a); chain copies: 2; label: CyDye5-dUTP incorporated in the synthesized complementary strand; 3' TTTTT single-stranded linker to array surface; dsDNA, one strand shown.
T1 sequence: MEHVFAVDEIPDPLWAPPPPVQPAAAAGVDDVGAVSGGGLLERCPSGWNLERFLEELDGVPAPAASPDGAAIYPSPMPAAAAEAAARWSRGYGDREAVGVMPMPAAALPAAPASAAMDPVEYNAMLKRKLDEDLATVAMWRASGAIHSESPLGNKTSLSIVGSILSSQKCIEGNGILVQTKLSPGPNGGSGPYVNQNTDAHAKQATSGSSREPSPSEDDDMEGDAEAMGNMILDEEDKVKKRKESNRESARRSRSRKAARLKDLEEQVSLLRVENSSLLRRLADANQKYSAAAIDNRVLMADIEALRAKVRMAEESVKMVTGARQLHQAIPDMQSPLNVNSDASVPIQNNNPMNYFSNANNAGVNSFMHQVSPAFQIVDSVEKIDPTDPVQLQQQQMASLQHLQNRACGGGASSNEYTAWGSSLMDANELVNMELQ
How it was run: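 Binding signal is defined as the fluorescence intensity of each feature in arbitrary units, read on an Axon 4000B scanner. Transcription factors with N-terminal polyhistidine and DsRed fusions came from E. coli BL21-CodonPlus and were purified on Ni–NTA. They were incubated at 200 nM for 1 h at 25 °C on a custom Agilent array that had been made double-stranded with Cy5-dUTP, with 50 µM zinc acetate present, and the array was washed.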

Row | Sequence | binding signal
1 | TTTGACATAGATGTGTTCCTCTAATGACATAGATGTGTTCCGGAGTCACCTAGTGCAG | 3230 fluorescence intensity (a.u.)
2 | TTTGTCTATCCTGCCGGCTTTTGGCCTCTGCACGGCGCGCCGGAGTCACCTAGTGCAG | 6700 fluorescence intensity (a.u.)
3 | CGCGATTCGCGAGTCATCATCCACGCGTCGTCGTCGTACTCGGAGTCACCTAGTGCAG | 4740 fluorescence intensity (a.u.)
4 | AGGCTACCCCACATATTATACTGGTGTGATTATGGTGAATCGGAGTCACCTAGTGCAG | 3540 fluorescence intensity (a.u.)
5 | AACGGCCCCGCATTCCTTGCCGTGACGTGACATGGCCACGCGGAGTCACCTAGTGCAG | 11100 fluorescence intensity (a.u.)
6 | TGGTGTCGCCGACTCTCTTCCTCCCGGTCCACTGGTGCCGCGGAGTCACCTAGTGCAG | 13700 fluorescence intensity (a.u.)
7 | CCAAACTAAGAGTGTTCAAGGGGAGGGGAAAAGAGAAGATCGGAGTCACCTAGTGCAG | 3660 fluorescence intensity (a.u.)
8 | TCCGTGGATGGTGGGAGACGGAGCGGCGTCATCGGTGGCCCGGAGTCACCTAGTGCAG | 4120 fluorescence intensity (a.u.)
9 | CGCCATGGACTGTCTCCATCCAAACCTACGTGTATCTTCACGGAGTCACCTAGTGCAG | 3260 fluorescence intensity (a.u.)
10 | GCTTGTGCCGCCGCCGCCACGTGCCGGTAGGGCTCCCCGCCGGAGTCACCTAGTGCAG | 8360 fluorescence intensity (a.u.)
11 | TTGGGTGGTCCCAAAATCATGGCAACTAATGGTGTTGTCCCGGAGTCACCTAGTGCAG | 3900 fluorescence intensity (a.u.)
12 | AAAGAACGCAGCCTTAGAAGGAGACAGCTCATGGAGCAAGCGGAGTCACCTAGTGCAG | 5000 fluorescence intensity (a.u.)
13 | AGAAGGGAAGGGGAGGGGAGGGCGGGACGCCGGCCGGAGCCGGAGTCACCTAGTGCAG | 5470 fluorescence intensity (a.u.)
14 | GCCATCGCTGACGCCGCCGACGCCGCCTCCAAATCCCGCCCGGAGTCACCTAGTGCAG | 4700 fluorescence intensity (a.u.)
15 | GTGCCTTGTTAAGTCGTTCGTGGTAGAATGCGTTGGCAGTCGGAGTCACCTAGTGCAG | 6840 fluorescence intensity (a.u.)
16 | TGCATGATATACAAATGTATAGCAAGCAGCACACATTACACGGAGTCACCTAGTGCAG | 32000 fluorescence intensity (a.u.)
17 | GGCGAGTCCACCGCGACGACACACACGTACTGATACCAATCGGAGTCACCTAGTGCAG | 4930 fluorescence intensity (a.u.)
18 | ATAAATTACCTTTAAATTTGCATGTGTTAAGCGATCATATCGGAGTCACCTAGTGCAG | 3820 fluorescence intensity (a.u.)
19 | ATAGATACTCCCTTCTACATCCCATCATAGTATGTGTCACCGGAGTCACCTAGTGCAG | 4490 fluorescence intensity (a.u.)
20 | CGTCGCCGTCGCCTCGCCTCGTCACGGCCGCCTCCGCCATCGGAGTCACCTAGTGCAG | 7920 fluorescence intensity (a.u.)
21 | CCGCCGCCGACGCGTTCCCGGCCGGCGGCGCCTACGTCGTCGGAGTCACCTAGTGCAG | 3350 fluorescence intensity (a.u.)

Part of the list above, set out differently:
Row	Sequence	binding signal
5	AACGGCCCCGCATTCCTTGCCGTGACGTGACATGGCCACGCGGAGTCACCTAGTGCAG	11100 fluorescence intensity (a.u.)
6	TGGTGTCGCCGACTCTCTTCCTCCCGGTCCACTGGTGCCGCGGAGTCACCTAGTGCAG	13700 fluorescence intensity (a.u.)

Remaining list, next part.

Row | Sequence | binding signal
22 | GTGTGTGAGGTGGGGAATTGGGAGCAGTTGATCACCGGGGCGGAGTCACCTAGTGCAG | 3380 fluorescence intensity (a.u.)
23 | TCGTGATCGGAAGGCGGAATGGTTGGGGCTACGTGTTTGTCGGAGTCACCTAGTGCAG | 5050 fluorescence intensity (a.u.)
24 | GGAGCACATAACATGCACGTCGGCCTCTGCCGCGTACGTACGGAGTCACCTAGTGCAG | 3350 fluorescence intensity (a.u.)
25 | TTGAAACTCAACGATACATCACTAGCTACCATTACGTATACGGAGTCACCTAGTGCAG | 3140 fluorescence intensity (a.u.)
26 | GAAGTAGTATCATGTTTACTCGTCCAACGTGTCTACCATCCGGAGTCACCTAGTGCAG | 7280 fluorescence intensity (a.u.)
27 | GACACGCCCGCCATGTCAGCCAAACACTGCTCTGGGATCTCGGAGTCACCTAGTGCAG | 6850 fluorescence intensity (a.u.)
28 | CAATTATCATTTATTTTGTTGTGAGTTGTTTTATCACTAACGGAGTCACCTAGTGCAG | 3410 fluorescence intensity (a.u.)
29 | GTATACTCTGCTGATGTGTTTATGTGTTTAAGGTCGTTGACGGAGTCACCTAGTGCAG | 8700 fluorescence intensity (a.u.)
30 | AGGAAGGAAGGAAGCAAAATGCTGACGTGTACATAAACCGCGGAGTCACCTAGTGCAG | 16000 fluorescence intensity (a.u.)
31 | ATGTTTATCATGTGTTCAGGGTGATGTGGACGTTGTATGTCGGAGTCACCTAGTGCAG | 9250 fluorescence intensity (a.u.)
32 | AAGGAGGGGATATGCATGTGTATGCCTTTGTAAGTTTATCCGGAGTCACCTAGTGCAG | 30600 fluorescence intensity (a.u.)
33 | CCTTAGGCTACGTTGGCTTTTGCATTTTGGCGTGGATTTTCGGAGTCACCTAGTGCAG | 14400 fluorescence intensity (a.u.)
34 | AGAGTGTGTATACGATCAGCCCCATCAAGTAGTTTTCTCTCGGAGTCACCTAGTGCAG | 3240 fluorescence intensity (a.u.)
35 | ATAAAAGAAAACACGTAACTAGTTAATGTATATTCGTAGTCGGAGTCACCTAGTGCAG | 3280 fluorescence intensity (a.u.)
36 | CAACCAAGCAAGCGGCAGCAGAGCGCGAGTCATGCGACCCCGGAGTCACCTAGTGCAG | 3180 fluorescence intensity (a.u.)
37 | GCACAATGATGACAACAGACAGTTTCCCACAGAAGATCCACGGAGTCACCTAGTGCAG | 3300 fluorescence intensity (a.u.)
38 | TTGGCTGATCTGTTCACGCTGACGCAACAGACGCGACGCGCGGAGTCACCTAGTGCAG | 10200 fluorescence intensity (a.u.)
39 | CACTACTTATCCAATCACAACCCTACATCACTCACTTCTACGGAGTCACCTAGTGCAG | 3180 fluorescence intensity (a.u.)
40 | CGCGCGTCTCGACTCCGTCCCAATCGATCGATCGATCGCGCGGAGTCACCTAGTGCAG | 12800 fluorescence intensity (a.u.)
41 | TTCCTACGTAGTCGCTATGACGGTGTACTACTTTTATATACGGAGTCACCTAGTGCAG | 3940 fluorescence intensity (a.u.)
42 | TACCGGCAGCTGCCTCTGACTCGTCTCCTCGTTGCTCCTCCGGAGTCACCTAGTGCAG | 5020 fluorescence intensity (a.u.)
